Data published in patent US8367659B2, “Oxazinyl isoflavonoid compounds, medicaments and use” (Marshall Edwards, Inc., priority 2007, dated 2013).
“Also recorded” adds a separate entry of the source. Like-named read-outs stand apart in the source and are kept apart here. At least one compound was matched to its structure with a doubt left.

Assays:
[1] = Free radical scavenging with DPPH; conditions: for EC50: DPPH, read-out: Free radical scavenging ability EC50
Experimental: The antioxidant (free radical trapping) activity of test compounds was assessed using the stable free radical compound 2,2-diphenyl-1-picrylhydrazyl (DPPH). A stock solution of DPPH was prepared at a concentration of […] in ethanol and mixed for 10 minutes prior to use. Test compounds at a concentration of 100 μM were reacted with DPPH for, 20 minutes, alter which time the absorbance at 517 nm was determined. Initial screening of was done at 100 μM. The change in absorbance at 517 nm was compared to a reagent blank (DPPH with ethanol alone). […] The IC50 values were estimated as the concentration of test compound that caused a 0.6 change in absorbance (with 1.2 absorbance units representing total scavenging of the DPPH radical).
The antioxidant (free radical trapping) activity of test compounds was assessed using the stable free radical compound 2,2-diphenyl-1-picrylhydrazyl (DPPH). A stock solution of DPPH was prepared […] in ethanol and mixed for 10 minutes prior to use. Initial screening of test compound at a concentration of 100 μM was reacted with DPPH for 20 minutes, after which time the absorbance at 517 nm was determined. The change in absorbance was compared to a reagent blank (DPPH with ethanol alone). […] The IC50 value was estimated as the concentration of test compound that causes a 0.6 change in absorbance (with 1.2 absorbance units representing total scavenging of the DPPH radical).

[2] = test system: low density lipoprotein (LDL); assay: Inhibition of Cu2+-induced oxidation of LDL (lipid peroxides, FOX assay); format: biochemical
Experimental: Blood was collected by venipuncture and plasma separated by centrifugation. LDL was then isolated from plasma using a 4-step sodium chloride density gradient and ultracentrifuged at 200,000 g for 20 hours at 4° C. The collect LDL was purified by passage through gel filtration PD10 column to remove excess salt and EDTA, and stored in the dark at 4° C. to prevent auto-oxidation and used with two weeks of isolation. The LDL cholesterol content was measure using a standard enzymatic method and protein concentration determined by the Lowry method using BSA as the standard.
[…] Oxidation reactions were initiated by the addition of freshly prepared Cu^2+ solution, such that the final concentration of CuSO4 was 5 μM. […] The extent of lipoprotein oxidation was determined by measuring the formation of lipid-peroxides on aliquots removed every 30-minute over a 3-hour period. Peroxides were determined at each time point by the ferrous oxidation-xylenol orange (FOX) assay using standard hydrogen peroxide curve (5 to 200 μM). Compounds (1) and (2) were examined in at least two separate experiments performed on separate days.

[3] = test system: IL-6; assay: IL-6 synthesis by mouse splenocytes (ELISA); format: cell-based, Skh-1:HR 1 (hairless) mice; conditions: 10 μM; 3 days
Experimental: Male Skh-1:HR 1 (hairless) mice, approximately six weeks old were killed by cervical dislocation. Single cell suspensions were made from the spleen and erythrocytes were lysed in buffer (0.14 M NH4Cl, 17 mM Tris, pH 7.2). The remaining splenocytes were cultured in RPMI-1640 (Gibco) supplemented with 10% (v:v) FBS, 200 mM L-glutamine, penicillin/streptomycin and […] 2-mercaptoethanol. Splenocytes were added to quadruplicate wells containing either concanavalin A (ConA, Sigma-Aldrich—0.4 μg/well), LPS (Sigma-Aldrich—1 μg/well) or no mitogen, as well 10 μM of test compound in DMSO. Samples were analysed after 3 days incubation at 37° C. in 5% CO2 in air. Methylthiazoletetrazolium (MTT) is bioreduced by viable cells into a coloured formazan product that is soluble in DMSO. Thus the quantity of formazan product is directly proportional to the number of living cells in culture, and can be measured using a spectrophotometer at 570 nm. MTT was added to each well, incubated for a further 4 hrs and then colour developed with 0.04 N HCl in isopropanol. Culture supernatants were stored after collection at −80° C. and analysed by ELISA (BD Biosciences) for IFN-γ (a Th-1 cytokine) and for T cells alone, IL-6 (a Th-2 cytokine).

Oc1ccc(C2=Cc3cc4c(cc3OC2)OCN(Cc2ccccc2)C4)cc1 [Compound 1, 4-(3-Benzyl-2,3,4,8-tetrahydrochromeno[6,7-e][1,3]oxazin-7-yl)phenol]
free radical scavenging / antioxidant activity in DPPH screen ([1]; 100 μM, ΔAbs>0.3 criterion): free radical scavenging activity; also recorded: potent free radical scavenging ability | EC50 ([1]; 20 minutes, absorbance 517 nm, Table 4): 18.8 µM | EC50 ([1]; comparative, Table 13): 19 µM | EC50 ([2]; LDL 0.1 mg/mL, CuSO4 5 μM, read-out: EC50, concentration at which 50% of the LDL oxidation was inhibited): 0.61 µM | lipid peroxide formation ([2]; LDL 0.1 mg/ml + compound 0.1 μM + Cu^++ 5 μM, 0 min): 10.39 ± 1.60 | lipid peroxide formation ([2]; LDL 0.1 mg/ml + compound 0.1 μM + Cu^++ 5 μM, 30 min): 13.26 ± 1.94 | lipid peroxide formation ([2]; LDL 0.1 mg/ml + compound 0.1 μM + Cu^++ 5 μM, 60 min): 24.45 ± 2.91 | lipid peroxide formation ([2]; LDL 0.1 mg/ml + compound 0.1 μM + Cu^++ 5 μM, 90 min): 78.52 ± 5.80 | lipid peroxide formation ([2]; LDL 0.1 mg/ml + compound 0.1 μM + Cu^++ 5 μM, 120 min): 147.9 ± 0.66 | lipid peroxide formation ([2]; LDL 0.1 mg/ml + compound 0.1 μM + Cu^++ 5 μM, 180 min): 171.1 ± 26.7 | lipid peroxide formation ([2]; LDL 0.1 mg/ml + compound 1.0 μM + Cu^++ 5 μM, 0 min): 10.03 ± 1.40 | lipid peroxide formation ([2]; LDL 0.1 mg/ml + compound 1.0 μM + Cu^++ 5 μM, 30 min): 11.37 ± 2.07 | lipid peroxide formation ([2]; LDL 0.1 mg/ml + compound 1.0 μM + Cu^++ 5 μM, 60 min): 11.33 ± 2.72 | lipid peroxide formation ([2]; LDL 0.1 mg/ml + compound 1.0 μM + Cu^++ 5 μM, 90 min): 16.30 ± 2.60 | lipid peroxide formation ([2]; LDL 0.1 mg/ml + compound 1.0 μM + Cu^++ 5 μM, 120 min): 30.44 ± 1.54 | lipid peroxide formation ([2]; LDL 0.1 mg/ml + compound 1.0 μM + Cu^++ 5 μM, 180 min): 131.5 ± 16.3 | lipid peroxide formation ([2]; LDL 0.1 mg/ml + compound 10 μM + Cu^++ 5 μM, 0 min): 10.08 ± 2.40 | lipid peroxide formation ([2]; LDL 0.1 mg/ml + compound 10 μM + Cu^++ 5 μM, 30 min): 10.87 ± 6.04 | lipid peroxide formation ([2]; LDL 0.1 mg/ml + compound 10 μM + Cu^++ 5 μM, 60 min): 14.91 ± 3.66 | lipid peroxide formation ([2]; LDL 0.1 mg/ml + compound 10 μM + Cu^++ 5 μM, 90 min): 16.54 ± 4.49 | lipid peroxide formation ([2]; LDL 0.1 mg/ml + compound 10 μM + Cu^++ 5 μM, 120 min): 18.24 ± 2.12 | lipid peroxide formation ([2]; LDL 0.1 mg/ml + compound 10 μM + Cu^++ 5 μM, 180 min): 19.20 ± 5.20 | lipid peroxide formation ([2]; LDL 0.1 mg/ml + compound 100 μM + Cu^++ 5 μM, 0 min): 12.06 ± 2.1 | lipid peroxide formation ([2]; LDL 0.1 mg/ml + compound 100 μM + Cu^++ 5 μM, 30 min): 15.95 ± 3.6 | lipid peroxide formation ([2]; LDL 0.1 mg/ml + compound 100 μM + Cu^++ 5 μM, 60 min): 17.88 ± 4.7 | lipid peroxide formation ([2]; LDL 0.1 mg/ml + compound 100 μM + Cu^++ 5 μM, 90 min): 20.73 ± 4.5 | lipid peroxide formation ([2]; LDL 0.1 mg/ml + compound 100 μM + Cu^++ 5 μM, 120 min): 23.57 ± 2.2 | lipid peroxide formation ([2]; LDL 0.1 mg/ml + compound 100 μM + Cu^++ 5 μM, 180 min): 23.0 ± 5.9 | lipid peroxide formation ([2]; compound 100 μM + Cu^++ 5 μM, without LDL, 0 min): 6.73 ± 4.21 | lipid peroxide formation ([2]; compound 100 μM + Cu^++ 5 μM, without LDL, 30 min): 14.41 ± 1.40 | lipid peroxide formation ([2]; compound 100 μM + Cu^++ 5 μM, without LDL, 60 min): 17.99 ± 4.54 | lipid peroxide formation ([2]; compound 100 μM + Cu^++ 5 μM, without LDL, 90 min): 21.78 ± 7.78 | lipid peroxide formation ([2]; compound 100 μM + Cu^++ 5 μM, without LDL, 120 min): 24.41 ± 5.01 | lipid peroxide formation ([2]; compound 100 μM + Cu^++ 5 μM, without LDL, 180 min): 26.70 ± 8.39 | synthesis of IL-6 into the supernatant [3]: concomitant reduction
